{"source": "patent US11376223B2", "about": "“Pharmaceutical compositions” (priority 2017, dated 2022)", "origin": "cited, not measured here", "conditions": "pH<6", "note": "Structures can show the parent of a compound that is named as a salt."}
{"smiles": "CC(C)c1c(C(=O)Nc2ccccc2)c(-c2ccccc2)c(-c2ccc(F)cc2)n1CC[C@@H](O)C[C@@H](O)CC(=O)O", "note": "(relative stereo) [atorvastatin, [R—(R*,R*)]-2-(4-fluorophenyl)-β, δ-dihydroxy-5-(1-methylethyl)-3-phenyl-4-[(phenylamino)carbonyl]-1H-pyrrole-1-heptanoic acid, calcium salt (2:1) trihydrate]", "values": [{"measurement": "pH dependent chemical instability", "result": "degrades to an undesired byproduct, a lactone"}]}
